The target of assay [1] is Gal4 DNA binding domain alone. The assay is described as follows: two-hybrid; mammalian two-hybrid in cos-7 cells: Gal4 DBD fusion and VP16 fusion co-transfected with pFR-luc and pCMV-lacZ; reporter alone set to 1.
The target of assay [2] is Gal4 DNA binding domain alone. The experiment in a line: two-hybrid; mammalian two-hybrid in HER911 cells: Gal4 DBD fusion and VP16 fusion co-transfected with the GAL4-based luciferase reporter pFR-luc and pCMV-lacZ; luciferase normalised to beta-galactosidase; reporter alone set to 1.

The values below come from PMC2383916.

Results are given in words; binding and its absence hold for the method and conditions named.

B1: CRY2-VP16 (protein, UniProt Q9R194 1-592)
chain: MAAAAVVAATVPAQSMGADGASSVHWFRKGLRLHDNPALLAAVRGARCVRCVYILDPWFAASSSVGINRWRFLLQSLEDLDTSLRKLNSRLFVVRGQPADVFPRLFKEWGVTRLTFEYDSEPFGKERDAAIMKMAKEAGVEVVTENSHTLYDLDRIIELNGQKPPLTYKRFQALISRMELPKKPAVAVSSQQMESCRAEIQENHDDTYGVPSLEELGFPTEGLGPAVWQGGETEALARLDKHLERKAWVANYERPRMNANSLLASPTGLSPYLRFGCLSCRLFYYRLWDLYKKVKRNSTPPLSLFGQLLWREFFYTAATNNPRFDRMEGNPICIQIPWDRNPEALAKWAEGKTGFPWIDAIMTQLRQEGWIHHLARHAVACFLTRGDLWVSWESGVRVFDELLLDADFSVNAGSWMWLSCSAFFQQFFHCYCPVGFGRRTDPSGDYIRRYLPKLKGFPSRYIYEPWNAPESVQKAAKCIIGVDYPRPIVNHAETSRLNIERMKQIYQQLSRYRGLCLLASVPSCVEDLSHPVAEPGSSQAGSISNTGPRALSSGPASPKRKLEAAEEPPGEELTKRARVTEMPTQEPASKDS
Consider B1, for which the binding entry in assay [1] and in assay [2] was “no binding” in each case.

B2: CRY1-VP16 (protein, UniProt P97784 1-606)
chain: MGVNAVHWFRKGLRLHDNPALKECIQGADTIRCVYILDPWFAGSSNVGINRWRFLLQCLEDLDANLRKLNSRLFVIRGQPADVFPRLFKEWNITKLSIEYDSEPFGKERDAAIKKLATEAGVEVIVRISHTLYDLDKIIELNGGQPPLTYKRFQTLVSKMEPLEMPADTITSDVIGKCMTPLSDDHDEKYGVPSLEELGFDTDGLSSAVWPGGETEALTRLERHLERKAWVANFERPRMNANSLLASPTGLSPYLRFGCLSCRLFYFKLTDLYKKVKKNSSPPLSLYGQLLWREFFYTAATNNPRFDKMEGNPICVQIPWDKNPEALAKWAEGRTGFPWIDAIMTQLRQEGWIHHLARHAVACFLTRGDLWISWEEGMKVFEELLLDADWSINAGSWMWLSCSSFFQQFFHCYCPVGFGRRTDPNGDYIRRYLPVLRGFPAKYIYDPWNAPEGIQKVAKCLIGVNYPKPMVNHAEASRLNIERMKQIYQQLSRYRGLGLLASVPSNSNGNGGLMGYAPGENVPSCSSSGNGGLMGYAPGENVPSCSGGNCSQGSGILHYAHGDSQQTHSLKQGRSSAGTGLSSGKRPSQEEDAQSVGPKVQRQSSN
As for B2, the binding result in assay [1] and in assay [2] was “no binding” throughout.
